# Paper PMC12040169 (PLOS Biology, 2025)
# This is one part of the list.
# Test system: T1, CTL2-GFP (C. trachomatis L2/434/Bu, GFP-expressing)
# T1 construct: L2/434/Bu, GFP-expressing
# Set-up: species or system HeLa; Intracellular C. trachomatis growth in HeLa cells, bulk GFP fluorescence relative to DMSO
# Conditions: bulk GFP, single well; 28.5 h, 10 µM; inhibitor
row,SMILES,% of control remaining
1,CCN(CC)C(=O)Cn1nc(C)n2c(cc3sc(C)cc32)c1=O [CBK284064],117.139%
2,O=C(c1ccc(F)cc1)N1C[C@@H](c2ccsc2)[C@@H]2CN(Cc3ccccc3)CC[C@@H]21 [CBK285635],154.703%
3,Cc1csc(C(Cc2ccsc2)NCC2=CCCOC2)n1 (stereo not drawn) [CBK282439],119.201%
4,COc1ccc(C(=O)N2CC[C@H]3NC(=O)N(c4ccccc4)C(=O)[C@H]32)cc1 [CBK289281],124.911%
5,O=C1COc2ccccc2C/C=C/CC2(CCN(C(=O)CCc3cccnc3)CC2)CN1 [CBK292127],116.301%
6,CN(C)S(=O)(=O)NNC(=O)c1c[nH]c2ccccc12 [CBK267698],108.259%
7,COC(=O)c1c(O)noc1C [CBK023348],107.735%
8,O=C(Cn1nc(C(=O)O)c2ccccc2c1=O)NCc1ccc(Cl)cc1Cl [CBK295320],150.325%
9,COc1ccc(S(=O)(=O)N(C)CC(=O)N2CCN(Cc3ccccc3)CC2)cc1C [CBK268221],114.536%
10,CCC(Oc1cc(C)ccc1Cl)C(=O)Nc1sccc1C(N)=O (stereo not drawn) [CBK268152],108.893%
11,CCc1cc2cc3c(cc2nc1SCC(=O)Nc1cccc(C(C)=O)c1)OCO3 [CBK108551],100%
12,O=S(=O)(NCCCn1ccnc1)c1cccs1 [CBK269912],94.0795%
13,O=[N+]([O-])c1cccc(-c2ccc(-c3nn4c(Cc5ccccc5)nnc4s3)o2)c1 [CBK267310],169.541%
14,CCOC(=O)c1cnc(SCc2nc(N)nc(Nc3ccc(F)cc3)n2)nc1N [CBK098477],112.86%
15,Cn1c(=O)n(CCN2CCOCC2)c(=O)c2c1nc1n2CCN1c1ccccc1 [CBK269328],143.723%
16,Cc1cc(C(=O)N2CCC(Cc3ccccc3-c3ccccc3)(C(=O)N(C)C)CC2)cs1 [CBK285676],96.787%
17,CC1(C(=O)N2CCc3onc(-c4ccccc4F)c3C2)CCCO1 (stereo not drawn) [CBK282660],101.031%
18,O=C(CN1C(=O)N2CCCN=C2c2ccccc21)NCc1ccccc1 [CBK284403],125.26%
19,Cc1ccc(NC(=O)C(=O)NCCCN2CCOCC2)cc1Cl [CBK264806],100%
20,O=C(CN1C(=O)CCC1=O)Nc1nc2ccccc2s1 [CBK287345],107.546%
21,COc1cc(C)c(-c2nc(C)nc(C)c2C)c(C)c1 [CBK306711],168.444%
22,O=C(CN1Cc2ccccc2C1)N1CCCC1c1nc2ccccc2[nH]1 (stereo not drawn) [CBK283710],146.759%
23,O=C(Cn1ncc2cccn2c1=O)c1ccc(F)cc1 [CBK283627],130.459%
24,O=C(NCCN1CCOCC1)c1sc2cc(F)ccc2c1Cl [CBK018212],78.7538%
25,N#Cc1nccnc1N1CCN(Cc2ccc3c(c2)OCO3)CC1 [CBK011284],135.955%
26,O=C(O)C1CCN(C(=O)NCc2ccc(F)cc2)CC1 [CBK156070],114.393%

row,SMILES,% of control remaining
1,COC(=O)[C@@H](C)NC(=O)[C@@H]1CN(C(=O)c2cccc(F)c2)CCN1C(=O)C1CCCCC1 [CBK289621],118.127%
2,CC(C)NC(=O)N1Cc2nc[nH]c2C[C@H]1c1nc(-c2ccc3c(c2)OCO3)no1 [CBK289001],130.157%
3,O=C(NC1CCCCC1)NS(=O)(=O)c1ccc(CCNC(=O)c2cccs2)cc1 [CBK011888],131.529%
4,CN(C)S(=O)(=O)c1ccc(C(=O)C2=C(O)C(=O)N(CCN3CCCCC3)C2c2cccnc2)cc1 (stereo not drawn) [CBK264700],109.906%
5,CCn1cc(C(=O)O)c(=O)c2cnc(N3CCN(C(=S)NC(=O)c4cccs4)CC3)nc21 [CBK265753],97.7576%
6,NC(=O)C1(Cc2ccc(-c3ccccc3)cc2)CCN(C(=O)COc2ccccc2)CC1 [CBK285773],124.237%
7,Cc1cccc2cc(CN(Cc3ccco3)C(=O)C3CCCCC3)c(O)nc12 [CBK269178],84.6674%
8,Cc1nn(C)c(N2CCNCC2)c1NC(=O)CN(C)C(=O)c1ccccc1 [CBK050255T],77.616%
9,CS(=O)(=O)Nc1nc2ccc(S(C)(=O)=O)cc2s1 [CBK092166],87.3523%
10,COc1ccccc1Cn1nc2nnc(-c3ccccc3)c(-c3ccccc3)n2c1=O [CBK286185],119.602%
11,CC(=O)N1C[C@@H](c2cccc(C)c2)[C@@H]2CN(CC3CC3)CC[C@@H]21 [CBK283372],149.184%
12,CNC(=O)C1CCN(Cc2ccc(-c3nnn(CC(=O)NCc4ccc(C)cc4)n3)cc2)CC1 [CBK153195T],98.912%
13,COc1ccc(C)cc1S(=O)(=O)Nc1cc(N2CCN(C(C)C)CC2)c2occc2c1 [CBK073625C],104.603%
14,O=C(c1nc[nH]n1)N1CCN(c2nccc(CCC(F)(F)F)n2)CC1 [CBK307306],100.874%
15,CCn1cc([C@H]2CN(C)C[C@@H]2N(C)C)c2ccccc21 [CBK285468],94.515%
16,COc1ccc(CCNC(=O)C2CCN(S(=O)(=O)c3ccccc3)CC2)cc1 [CBK264985],113.393%
17,O=C(c1cccc(F)c1)N1C2CCC1CC(O)(c1cccnc1F)C2 (stereo not drawn) [CBK284422],96.4504%
18,CC(C)Cc1ccc(-c2cc(Nc3ccc(O)cc3)ncn2)cc1 [CBK090754],177.815%
19,c1ccc2c3c([nH]c2c1)C12CCN(CC1)C(C1CCOC1)N2CC3 (stereo not drawn) [CBK284433],129.528%
20,c1c2c(cc3sc(N4CCOCC4)nc13)OCO2 [CBK287494],116.996%
21,CC(C)(C)OC(=O)N[C@@H](Cc1ccccc1)C(=O)NC[C@H]1CC[C@H](C(=O)O)CC1 [CBK286719],104.859%
22,NS(=O)(=O)c1ccc(C(=O)NCCc2c[nH]c3ccc(Cl)cc23)cc1 [CBK159780],111.942%
23,COC(=O)c1ccccc1NC(=O)CCSc1ccc(C)cc1 [CBK265958],111.974%
24,COC[C@@H]1CCCN1S(=O)(=O)c1ccc(Cl)c(Cl)c1 [CBK044313],105.767%
25,O=C(Cn1cncn1)N[C@H]1C2CCCCC2[C@@H]1c1ccccc1 (stereo partly drawn) [CBK283011],116.094%
26,O=C(C1CCCN(S(=O)(=O)c2ccc(F)cc2)C1)N(Cc1ccccc1)Cc1ccccc1 (stereo not drawn) [CBK267652],79.945%

# Among those listed so far, these have an aryl thioether with sulfur outside any ring:
row,SMILES,% of control remaining
11,CCc1cc2cc3c(cc2nc1SCC(=O)Nc1cccc(C(C)=O)c1)OCO3 [CBK108551],100%
14,CCOC(=O)c1cnc(SCc2nc(N)nc(Nc3ccc(F)cc3)n2)nc1N [CBK098477],112.86%
23,COC(=O)c1ccccc1NC(=O)CCSc1ccc(C)cc1 [CBK265958],111.974%

# Some of these compounds in order of SMILES length, smallest number first.
row,SMILES,% of control remaining
12,O=S(=O)(NCCCn1ccnc1)c1cccs1 [CBK269912],94.0795%
25,N#Cc1nccnc1N1CCN(Cc2ccc3c(c2)OCO3)CC1 [CBK011284],135.955%
8,Cc1nn(C)c(N2CCNCC2)c1NC(=O)CN(C)C(=O)c1ccccc1 [CBK050255T],77.616%

# Further results

row,SMILES,% of control remaining
1,CN(C)CCN(Cc1ccccc1)C(=O)NCc1ccc(C#N)cc1 [CBK155097],126.983%
2,Cc1ccc(-c2nnc(CNC(=O)Cc3ccccc3Cl)o2)s1 [CBK284648],147.769%
3,O=C(Cc1cc(C(=O)O)c2ccccc2n1)Nc1ccccc1 [CBK268227],128.245%
4,Cc1cc(NS(=O)(=O)c2ccc(F)cc2)n(C)n1 [CBK051021],109.111%
5,O=C(Nc1ccc(OCc2nc3ccccc3s2)cc1)c1cccc(I)c1 [CBK267843],89.7078%
6,CCCC/N=C(\NS(=O)(=O)c1ccc(C)cc1)OCC [CBK022731],93.8609%
7,COc1ccc(-c2sc(C(=O)O)c(C)c2C#N)cc1 [CBK019922],98.3965%
8,Cc1ccc(OC(C)C(=O)Nc2cc(C(C)(C)C)on2)cc1C (stereo not drawn) [CBK288251],117.424%
9,CC(C)(CNC(=O)CN1CCOCC1)NC(=O)OC(C)(C)C [CBK089350],120.345%
10,O=C1CCCC[C@]2(CN(Cc3ccccc3)C[C@H]2c2cccnc2)N1 [CBK283342],81.2687%
11,O=C(Cn1ccnc1)NC(Cc1cccs1)c1nccs1 (stereo not drawn) [CBK285092],140.041%
12,COc1ccc(N2C(=O)CC(Nc3cc(C(=O)O)ccc3C)C2=O)c(OC)c1 (stereo not drawn) [CBK296650],127.252%
13,COc1cccc(CC(=O)N2CCC(Cc3cccc(-c4cccs4)c3)(C(N)=O)CC2)c1 [CBK285738],160.789%
14,COc1cc(CNCc2cccnc2)cc(Cl)c1OCc1cccs1 [CBK270026C],76.8738%
15,Cn1ccnc1C1(O)CCN(C(=O)NCc2ccccc2)CC1 [CBK282276],116.564%
16,O=C(Nc1ccccc1C(=O)O)c1ccc(-c2ccc(Cl)cc2Cl)o1 [CBK078453],72.6917%
17,Cc1cc(C(C)(C)C)cc(C)c1S(=O)(=O)NCCSCCN [CBK013357],75.3557%
18,Cc1c(Cc2ccccc2)c(-n2ccnc2C)n2c(nc3ccccc32)c1C#N [CBK263144],121.488%
19,c1ccc(CN2CC[C@H](c3nnc(-c4cccnc4)o3)C2)cc1 [CBK289397],129.933%
20,COc1cc(/C=C2\S/C(=N/c3ccc(S(N)(=O)=O)cc3)NC2=O)c(Br)cc1O [CBK265711],100%
21,COc1ccccc1NC(=O)C(C)N1C(=O)c2ccccc2C1=O (stereo not drawn) [CBK261043],112.138%
22,CCN(C#N)c1nc(NC)nc(OC)n1 [CBK265697],105.886%
23,COc1ccc(CNC(C)C2COc3ccccc3O2)c(OC)c1 (stereo not drawn) [CBK074283G],129.802%
24,CNC(=O)c1sc2ccccc2c1C1CCN(C(=O)Cc2coc3c(C)c(C)ccc23)C1 (stereo not drawn) [CBK285876],106.605%
25,CCC1CCCCN1C(=O)c1ccc(OC)c(OC)c1 (stereo not drawn) [CBK084527],121.05%
26,O=C(Nc1ccc(N2CCNCC2)c2ccccc12)c1ccccc1 [CBK028412T],108.789%
